Measurements published in article PMC9253107, “Engineering of ultraID, a compact and hyperactive enzyme for proximity-dependent biotinylation in living cells” (Communications Biology, 2022).
These are yes or no findings as the source states them, for the method shown. Binding seen in cells or lysates may run through a third protein. A yes stands for co-enrichment or nearness to the bait. Other partners may have been found.

The chains behind the UniProt entries cited, without tags or fusion partners.
UniProt Q9UKV8: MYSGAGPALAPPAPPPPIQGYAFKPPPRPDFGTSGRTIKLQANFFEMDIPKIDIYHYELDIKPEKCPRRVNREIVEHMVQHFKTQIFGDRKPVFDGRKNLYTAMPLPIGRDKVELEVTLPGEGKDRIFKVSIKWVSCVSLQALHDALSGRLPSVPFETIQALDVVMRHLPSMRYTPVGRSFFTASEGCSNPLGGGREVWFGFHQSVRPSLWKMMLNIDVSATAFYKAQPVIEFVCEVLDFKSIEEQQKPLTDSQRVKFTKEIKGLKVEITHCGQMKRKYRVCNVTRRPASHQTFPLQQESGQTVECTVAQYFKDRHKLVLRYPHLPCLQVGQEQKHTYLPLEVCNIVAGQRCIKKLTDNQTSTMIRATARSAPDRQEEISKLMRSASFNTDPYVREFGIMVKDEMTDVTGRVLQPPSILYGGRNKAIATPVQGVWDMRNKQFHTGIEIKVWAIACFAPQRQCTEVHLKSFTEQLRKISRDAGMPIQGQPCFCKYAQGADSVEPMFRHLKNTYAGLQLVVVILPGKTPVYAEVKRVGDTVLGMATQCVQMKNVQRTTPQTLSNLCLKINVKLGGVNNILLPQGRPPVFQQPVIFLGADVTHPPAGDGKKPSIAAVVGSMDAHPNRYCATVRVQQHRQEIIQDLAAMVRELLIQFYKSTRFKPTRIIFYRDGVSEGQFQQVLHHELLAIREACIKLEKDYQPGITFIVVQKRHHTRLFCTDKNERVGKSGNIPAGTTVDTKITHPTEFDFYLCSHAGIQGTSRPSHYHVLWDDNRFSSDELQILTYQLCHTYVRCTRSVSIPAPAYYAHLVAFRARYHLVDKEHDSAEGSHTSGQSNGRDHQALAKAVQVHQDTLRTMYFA

Experiments:
[1] = biological target: BioID-Ago2 (UniProt Q9UKV8); experiment: proximity labelling; BioID-Ago2 in doxycycline-induced HeLa 11ht line, 50 uM biotin overnight (added with doxycycline, 24 h); streptavidin pulldown, on-bead trypsin digestion, LC-MS/MS; enrichment (LFQ, proDA) against BioID-Rab11; four biological replicates
[2] = biological target: T1, γ1-COP-ultraID (UniProt Q9QZE5); experiment: proximity labelling; γ1-COP-ultraID or γ2-COP-ultraID rescue lines of P19 cells, 50 uM biotin for 4 h, mock or brefeldin A (5 ug/mL, 1 h before and during labeling); streptavidin pulldown, LC-MS/MS; enrichment against ultraID-Ago2 (mock) and of mock against BFA; three biological replicates
T1 sequence: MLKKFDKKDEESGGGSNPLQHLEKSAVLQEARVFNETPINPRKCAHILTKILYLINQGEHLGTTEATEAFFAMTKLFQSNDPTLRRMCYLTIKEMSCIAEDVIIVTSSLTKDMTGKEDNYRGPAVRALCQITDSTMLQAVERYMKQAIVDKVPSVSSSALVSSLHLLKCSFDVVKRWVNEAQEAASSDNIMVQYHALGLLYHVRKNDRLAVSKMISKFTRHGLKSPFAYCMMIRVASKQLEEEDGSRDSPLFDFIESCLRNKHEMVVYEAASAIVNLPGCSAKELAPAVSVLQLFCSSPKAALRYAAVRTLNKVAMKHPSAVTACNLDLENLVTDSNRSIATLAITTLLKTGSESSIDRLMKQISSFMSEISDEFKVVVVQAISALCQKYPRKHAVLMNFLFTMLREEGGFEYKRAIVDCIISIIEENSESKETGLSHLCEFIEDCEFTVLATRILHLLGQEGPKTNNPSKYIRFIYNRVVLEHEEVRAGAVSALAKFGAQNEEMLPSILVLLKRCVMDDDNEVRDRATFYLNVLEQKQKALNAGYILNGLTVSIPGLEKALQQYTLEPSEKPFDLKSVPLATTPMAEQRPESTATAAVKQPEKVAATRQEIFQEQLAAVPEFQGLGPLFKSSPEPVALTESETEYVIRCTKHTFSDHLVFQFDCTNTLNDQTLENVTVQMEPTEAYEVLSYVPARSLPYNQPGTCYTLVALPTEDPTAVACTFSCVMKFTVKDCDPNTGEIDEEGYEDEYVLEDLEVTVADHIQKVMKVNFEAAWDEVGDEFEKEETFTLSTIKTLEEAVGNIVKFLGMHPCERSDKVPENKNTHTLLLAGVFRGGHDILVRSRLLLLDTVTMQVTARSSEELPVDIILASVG

B1: DCP1B (protein, UniProt Q8IZD4 1-617)
chain: MAAVAAGGLVGKGRDISLAALQRHDPYINRIVDVASQVALYTFGHRANEWEKTDVEGTLFVYTRSASPKHGFTIMNRLSMENRTEPITKDLDFQLQDPFLLYRNARLSIYGIWFYDKEECQRIAELMKNLTQYEQLKAHQGTGAGISPVILNSGEGKEVDILRMLIKAKDEYTKCKTCSEPKKITSSSAIYDNPNLIKPIPVKPSENQQQRIPQPNQTLDPEPQHLSLTALFGKQDKATCQETVEPPQTLHQQQQQQQQQQEKLPIRQGVVRSLSYEEPRRHSPPIEKQLCPAIQKLMVRSADLHPLSELPENRPCENGSTHSAGEFFTGPVQPGSPHNIGTSRGVQNASRTQNLFEKLQSTPGAANKCDPSTPAPASSAALNRSRAPTSVTPVAPGKGLAQPPQAYFNGSLPPQTVGHQAHGREQSTLPRQTLPISGSQTGSSGVISPQELLKKLQIVQQEQQLHASNRPALAAKFPVLAQSSGTGKPLESWINKTPNTEQQTPLFQVISPQRIPATAAPSLLMSPMVFAQPTSVPPKERESGLLPVGGQEPPAAATSLLLPIQSPEPSVITSSPLTKLQLQEALLYLIQNDDNFLNIIYEAYLFSMTQAAMKKTM
- binding [1]: binds

B2: golgin-84 (protein, UniProt Q9QYE6 1-729)
chain: MSWFADLAGRAEDLLNRVDQGAATALRKENTSNIFYSKNTDYPELQQQNTDSNYQTGQKANYISSAADNIRHQKATILAGTANVKVGSRTVGDATHPTEHASAPRPSSQFVRRKKSEPDDELLFDFLNSSQKEPTGRVEVKKEKGRAPVSPSSPSGVSSVNTSVTTTKAMGGNAGSQSPGVNSSDSVPEVHKEPSEESTAPSATSEEHSSTPSDGSSRSQELSNLRLENQLLRNEVQSLNQEMASLLQRSKETQEELNKARVRVEKWNVDNSKSDRITRELRAQVDDLTEAVAAKDSQLAVLKVRLQEADQVLSSRTEALEALRSEKSRIMQDHKEGSSLQNQALQTLQERLHEADATLKREQESYKQMQSEFAARLNKMEVDRQNLAEAVTLAERKYSEEKKKVDELQQQVKLHRASLESAKQELVDYKQKATRILQSKEKLINSLKEGSSFEGLESSTASSMELEELRHEKEMQKEEIQKLMGQMHQLRSELQDMEAQQVSEAESAREQLQDLQDQIAKQRTSKQELETELERMKQEFRYMEEDLHRTKNTLQSRIKDREEEIQKLRNQLTNKTLSNSSQSELESRLHQLTETLIQKQTMLESLSTEKNSLVFQLERLEQQVHSASSGPNSGSAINMSGVDSGEGTRLRNVPVLFNDTETNLAGMYGKVRKAASSIDQFSIRLGIFLRRYPIARVFVIIYMALLHLWVMIVLLTYSPEMHHDQPYGK
- binding [2]: binds

B3: ERGIC-53 (protein, UniProt Q9D0F3 31-517)
chain: DGTGGDAAAPGAAGTQAELPHRRFEYKYSFKGPHLVQSDGTVPFWAHAGNAIPSADQIRIAPSLKSQRGSVWTKAKAAFENWEVEVTFRVTGRGRIGADGLAIWYTENQGLDGPVFGSADTWNGVGIFFDSFDNDGKKNNPAIVVIGNNGQINYDHQNDGATQALASCQRDFRNKPYPVRAKITYYQKTLTVMINNGFTPDKNDYEFCAKVENMVIPTQGHFGISAATGGLADDHDVLSFLTFQLTEPGKEPPTAEKDISEKEKEKYQEEFEHFQQELDKKKEEFQKGHPDLQGQPADDIFESIGDRELRQVFEGQNRIHLEIKQLNRQLDMILDEQRRYVSSLTEEISRRGAGTPGQPGQVSQQELDTVVKSQQEILRQVNEVKNSMSETVRLVSGIQHPGSAGVYETTQHFMDIKEHLHVVKRDIDSLAQRSMPSNEKPKCPDLPPFPSCLSTIHFVIFVVVQTVLFVGYIMYRTQQEAAAKKFF
- binding [2]: binds
